Assay results from patent US20060104978A1, “Methods and compositions for PDGF-C activation and inhibition” (LUDWIG INSTITUTE FOR CANCER RESEARCH, priority 2003, published 2006).
These are yes or no findings as the source states them, for the method shown. Binding seen in cells or lysates may run through a third protein. Some binding calls cover weakened binding; strength is not graded here.

Chains of the proteins cited; added tags and fusions are not shown. Lines headed by an entry give the natural chain unless they say otherwise; changes in a name come on top. A line that says so, or that is headed by a name, gives the form on record, which may keep a tag or linker. Residues count along the entry.
recombinant His6-tagged latent (full-length) human PDGF-CC (Q9NRA1, form named): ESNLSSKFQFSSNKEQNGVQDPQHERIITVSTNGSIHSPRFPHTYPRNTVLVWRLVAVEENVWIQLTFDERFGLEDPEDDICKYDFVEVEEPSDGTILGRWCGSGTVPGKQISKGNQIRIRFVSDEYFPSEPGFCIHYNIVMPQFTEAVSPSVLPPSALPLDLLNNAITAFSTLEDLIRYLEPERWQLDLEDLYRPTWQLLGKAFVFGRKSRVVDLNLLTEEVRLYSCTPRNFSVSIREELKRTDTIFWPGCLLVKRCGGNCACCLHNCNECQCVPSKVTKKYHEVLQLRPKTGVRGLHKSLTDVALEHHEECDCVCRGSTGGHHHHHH
recombinant 'free' CUB domain of human PDGF-C (amino-acid residues 23-163, C-terminal His6 tag) (Q9NRA1, form named): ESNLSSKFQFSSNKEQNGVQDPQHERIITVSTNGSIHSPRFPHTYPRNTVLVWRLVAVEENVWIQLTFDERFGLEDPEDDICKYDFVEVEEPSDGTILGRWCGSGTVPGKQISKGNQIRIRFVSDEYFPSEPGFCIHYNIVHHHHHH
recombinant His6-tagged core domain of PDGF-CC (Q9NRA1, form named): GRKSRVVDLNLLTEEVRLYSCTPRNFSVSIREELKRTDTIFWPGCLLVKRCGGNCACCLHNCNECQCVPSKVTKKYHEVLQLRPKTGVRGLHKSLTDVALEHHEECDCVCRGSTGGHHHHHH
UniProt P00750, residues 36-562: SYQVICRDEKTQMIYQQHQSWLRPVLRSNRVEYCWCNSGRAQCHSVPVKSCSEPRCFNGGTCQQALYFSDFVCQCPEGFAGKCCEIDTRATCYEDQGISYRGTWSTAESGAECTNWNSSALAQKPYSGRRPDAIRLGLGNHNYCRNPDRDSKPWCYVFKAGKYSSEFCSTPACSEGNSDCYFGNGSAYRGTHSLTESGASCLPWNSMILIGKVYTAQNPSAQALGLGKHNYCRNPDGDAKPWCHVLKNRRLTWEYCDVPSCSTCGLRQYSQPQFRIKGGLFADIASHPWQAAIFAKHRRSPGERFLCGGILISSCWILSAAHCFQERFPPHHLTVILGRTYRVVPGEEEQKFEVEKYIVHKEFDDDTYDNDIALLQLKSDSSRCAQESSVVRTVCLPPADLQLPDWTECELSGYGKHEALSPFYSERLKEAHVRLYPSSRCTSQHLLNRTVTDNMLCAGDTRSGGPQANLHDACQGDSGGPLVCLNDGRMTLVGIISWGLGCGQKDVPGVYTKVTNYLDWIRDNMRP

Assays:
[1] = target: recombinant His6-tagged latent (full-length) human PDGF-CC (human) (UniProt Q9NRA1); assay: Ni-NTA pull-down, elution with 400 mM imidazole, immunoblot (FIG. 5B)
[2] = target: recombinant 'free' CUB domain of human PDGF-C (amino-acid residues 23-163, C-terminal His6 tag) (human) (UniProt Q9NRA1); assay: as above
[3] = target: recombinant His6-tagged core domain of PDGF-CC (human) (UniProt Q9NRA1); assay: as above
[4] = target: recombinant His6-tagged latent (full-length) human PDGF-CC (human) (UniProt Q9NRA1); assay: Ni-NTA pull-down with His6-tagged protein on beads, imidazole elution, immunoblot
[5] = target: recombinant 'free' CUB domain of human PDGF-C (amino-acid residues 23-163, C-terminal His6 tag) (human) (UniProt Q9NRA1); assay: as above
[6] = target: recombinant His6-tagged core domain of PDGF-CC (human) (UniProt Q9NRA1); assay: as above

Measured: binding

tPA purified from human melanoma cells (T7776, Sigma) (from UniProt P00750 36-562) (enzyme)
binds: all assays above
